Source: paper PMC8046669
These are yes or no findings as the source states them, for the method shown.

Chains of the proteins cited; added tags and fusions are not shown. Lines headed by an entry give the natural chain unless they say otherwise; changes in a name come on top.
UniProt P32558: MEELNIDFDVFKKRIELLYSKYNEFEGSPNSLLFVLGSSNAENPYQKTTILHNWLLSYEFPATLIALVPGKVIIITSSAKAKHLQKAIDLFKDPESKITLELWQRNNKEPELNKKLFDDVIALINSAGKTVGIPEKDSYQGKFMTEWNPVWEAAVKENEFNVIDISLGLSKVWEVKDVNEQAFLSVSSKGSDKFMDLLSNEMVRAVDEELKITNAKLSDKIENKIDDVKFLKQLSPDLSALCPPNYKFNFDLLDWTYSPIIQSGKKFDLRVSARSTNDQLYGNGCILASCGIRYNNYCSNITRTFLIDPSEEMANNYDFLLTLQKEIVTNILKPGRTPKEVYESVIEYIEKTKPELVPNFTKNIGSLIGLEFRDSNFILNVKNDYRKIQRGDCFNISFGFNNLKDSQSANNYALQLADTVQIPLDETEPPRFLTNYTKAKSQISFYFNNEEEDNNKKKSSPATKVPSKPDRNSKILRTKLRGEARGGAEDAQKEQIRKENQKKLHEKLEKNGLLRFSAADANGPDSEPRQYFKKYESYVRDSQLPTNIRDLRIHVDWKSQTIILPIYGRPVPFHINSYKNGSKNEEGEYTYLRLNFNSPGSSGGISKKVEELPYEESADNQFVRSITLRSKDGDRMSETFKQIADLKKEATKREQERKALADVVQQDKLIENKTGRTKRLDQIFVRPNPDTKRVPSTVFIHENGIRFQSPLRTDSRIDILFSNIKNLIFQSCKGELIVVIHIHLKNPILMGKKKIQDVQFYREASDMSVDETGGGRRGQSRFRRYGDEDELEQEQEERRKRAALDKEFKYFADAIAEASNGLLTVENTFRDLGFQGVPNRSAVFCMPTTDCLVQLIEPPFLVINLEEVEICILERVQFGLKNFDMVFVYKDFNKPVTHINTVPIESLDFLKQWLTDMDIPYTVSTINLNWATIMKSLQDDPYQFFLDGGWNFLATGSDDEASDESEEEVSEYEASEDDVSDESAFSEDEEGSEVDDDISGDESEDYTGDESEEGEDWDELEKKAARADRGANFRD

Target: T1, S. cerevisiae Spt4/5 (S. cerevisiae) (UniProt P32914+P27692)
T1 sequence 1: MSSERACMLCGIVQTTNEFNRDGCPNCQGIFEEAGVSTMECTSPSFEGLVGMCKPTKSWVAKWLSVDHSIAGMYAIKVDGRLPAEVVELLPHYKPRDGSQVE
T1 sequence 2: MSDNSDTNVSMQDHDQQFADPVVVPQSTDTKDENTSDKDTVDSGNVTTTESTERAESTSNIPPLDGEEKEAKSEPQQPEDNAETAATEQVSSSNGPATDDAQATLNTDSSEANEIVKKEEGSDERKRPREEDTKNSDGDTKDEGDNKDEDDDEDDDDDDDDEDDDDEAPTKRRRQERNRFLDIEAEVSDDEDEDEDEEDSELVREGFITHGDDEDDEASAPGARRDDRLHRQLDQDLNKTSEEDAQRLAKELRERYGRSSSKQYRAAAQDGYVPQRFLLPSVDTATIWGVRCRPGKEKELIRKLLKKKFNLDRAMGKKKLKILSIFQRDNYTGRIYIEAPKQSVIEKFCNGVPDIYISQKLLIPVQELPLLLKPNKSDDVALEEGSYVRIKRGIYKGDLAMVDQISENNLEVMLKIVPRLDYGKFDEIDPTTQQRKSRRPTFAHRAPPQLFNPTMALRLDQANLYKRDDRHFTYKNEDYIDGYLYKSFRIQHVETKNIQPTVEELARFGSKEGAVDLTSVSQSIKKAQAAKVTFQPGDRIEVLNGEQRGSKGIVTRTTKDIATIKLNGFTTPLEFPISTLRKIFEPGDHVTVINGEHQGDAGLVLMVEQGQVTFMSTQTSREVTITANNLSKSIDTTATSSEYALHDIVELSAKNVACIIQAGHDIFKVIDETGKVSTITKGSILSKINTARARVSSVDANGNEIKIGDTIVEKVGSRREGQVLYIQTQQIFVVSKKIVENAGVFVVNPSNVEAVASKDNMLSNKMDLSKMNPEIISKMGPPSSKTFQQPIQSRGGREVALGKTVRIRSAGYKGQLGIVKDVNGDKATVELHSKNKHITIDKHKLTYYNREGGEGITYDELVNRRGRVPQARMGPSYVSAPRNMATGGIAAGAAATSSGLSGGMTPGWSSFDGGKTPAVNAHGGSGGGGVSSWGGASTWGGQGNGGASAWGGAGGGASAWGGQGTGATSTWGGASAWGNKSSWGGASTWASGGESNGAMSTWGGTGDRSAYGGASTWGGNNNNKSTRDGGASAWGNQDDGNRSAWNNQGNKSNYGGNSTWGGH
Assay: cryo-EM structure; transcribing Pol II−Spt4/5−nucleosome−FACT complex, Chd1 withheld; GTP, CTP, UTP and 3'-dATP; 130 mM NaCl, 20 mM Na-HEPES pH 7.4, 3 mM MgCl2; purified by size exclusion chromatography, crosslinked; both purified

S. cerevisiae FACT (heterodimer of Spt16 and Pob3) (from UniProt P32558 1-1035; Q04636 1-552) (complex)
binding: no binding
